Source: US9895352B2, “Indolinone compounds and uses thereof” (Oncternal Therapeutics, Inc., priority 2014, dated 2018)
Like-named read-outs stand apart in the source and are kept apart here.

Tests used:
[1] = human, microsomes, 1 h
[2] = dog, microsomes, 1 h
[3] = rat, microsomes, 1 h
[4] = mouse, microsomes, 1 h

## CCCNCC(O)COc1ccccc1C(=O)CCc1ccccc1 (stereo not shown) [Propafenone, reference compound]
[1]
  Remaining (NCF = 60 min): 92.5%
[2]
  Remaining (NCF = 60 min): 89.6%
[3]
  Remaining (NCF = 60 min): 89.2%
[4]
  Remaining (NCF = 60 min): 91.7%
